Results as given in patent US10023532B2, “Alkyl phenyl sulfide derivative and pest control agent” (KUMIAI CHEMICAL INDUSTRY CO., LTD., priority 2012, dated 2018).
Some entries share one result that the patent states for a list of compounds.

Tested on: Nilaparvata lugens Stál (brown rice planthopper)
Experiment: Insecticidal activity test for Nilaparvata lugens Stál (brown rice planthopper)
Type: in vivo
Conditions: active ingredient concentration 100 ppm; sprouting unhulled rice immersed; 10 3-instar larvae; 25° C.; after 6 days; no replication
Description: A wettable powder prepared based on Formulation Example 2 was diluted with water into an active ingredient concentration of 100 ppm. In the solution was immersed sprouting unhulled rice. They were placed in a 60-ml plastic cup. Thereinto were released 10 3-instar larvae of brown rice planthopper. The cup was covered with a lid and placed in a thermostat of 25° C. After 6 days, the number of living insects was counted and the mortality of insect was determined from the calculation formula of the following Mathematical Expression 2. This test was conducted with no replication. Mortality (%)=100−[(number of living insects after 6 days)/(number of tested insects)]×100 [Mathematical Expression 2]
As in the case of Test Example 1, tests similar to the above were conducted using, as comparative compounds, compound Nos. 22 and 23 described in JP-A-1975-29744, compound Nos. 4, 5, 6 described in JP-A-1976-19121 and compound Nos. 18, 19 and 36 described in JP-A-1988-41451.

| Structure (SMILES) | mortality [%] |
| --- | --- |
| Cc1cc(F)c(OCCON=Cc2ccccc2)cc1SCC(F)(F)F [A-0998] | ≥ 90 |
| [O-][S+](CC(F)(F)F)c1cc(OCC2(c3ccccc3)CC2)c(F)cc1Cl (racemic) [A-0314] | ≥ 90 |
| Cc1cc(F)c(OCCCON)cc1SCC(F)(F)F [A-1044] | ≥ 90 |
| CCCCCCCOc1cc(SCC(F)(F)F)c(C)cc1F [A-0022] | ≥ 90 |
| CCCCCCOc1cc([S+]([O-])CC(F)(F)F)c(C)cc1F (stereo not shown) [A-0015] | ≥ 90 |
| Cc1cc(F)c(OCCCON=Cc2ccc(C(F)(F)F)cc2)cc1[S+]([O-])CC(F)(F)F (racemic) [A-1005] | ≥ 90 |
| Fc1cc(Cl)c(SCC(F)(F)F)cc1OCC(F)(F)C(F)(F)C(F)(F)C(F)(F)F [A-0186] | ≥ 90 |
| CC(=NOCCOc1cc(SCC(F)(F)F)c(C)cc1F)C(F)(F)F [A-0968] | ≥ 90 |
| Cc1cc(F)c(OC2CCCC2)cc1SCC(F)(F)F [A-1093] | ≥ 90 |
| Cc1cc(F)c(OCC2CCC(C(F)(F)F)CC2)cc1SCC(F)(F)F (stereo not shown) [A-0317] | ≥ 90 |
| Cc1cc(F)c(OCCCCCSC(F)(F)F)cc1SCC(F)(F)F [A-0431] | ≥ 90 |
| C#CCCCOc1cc(SCC(F)(F)F)c(C)cc1F [A-0243] | ≥ 90 |
| Cc1cc(F)c(OCCCON=Cc2ccc(SC(F)(F)F)cc2)cc1[S+]([O-])CC(F)(F)F (racemic) [A-1008] | ≥ 90 |
| Cc1cc(F)c(OCCCON=Cc2cccc(C(F)(F)F)c2)cc1SCC(F)(F)F [A-1004] | ≥ 90 |
| Cc1cc(F)c(OCCCc2ccc(C(C)(C)C)cc2)cc1[S+]([O-])CC(F)(F)F (stereo not shown) [A-0847] | ≥ 90 |
| N#Cc1cc(F)c(OCCCCCSC(F)(F)F)cc1SCC(F)(F)F [A-0436] | ≥ 90 |
| Cc1cc(F)c(OCCCC(C)(C)C)cc1SCC(F)(F)F [A-0074] | ≥ 90 |
| Cc1cc(F)c(OCC(F)(F)C(F)(F)F)cc1SCC(F)(F)F [A-0172] | ≥ 90 |
| [O-][S+](CC(F)(F)F)c1cc(OCC(F)(F)C(F)(F)C(F)(F)C(F)(F)F)c(F)cc1Cl (stereo not shown) [A-0187] | ≥ 90 |
| Fc1cc(Cl)c(SCC(F)(F)F)cc1OCCCCOC(C(F)(F)F)(C(F)(F)F)C(F)(F)F [A-0217] | ≥ 90 |
| CCCCCCCOc1cc([S+]([O-])CC(F)(F)F)c(C)cc1F (stereo not shown) [A-0023] | ≥ 90 |
| Cc1cc(F)c(OCCC(C)CC(C)(C)C)cc1SCC(F)(F)F (stereo not shown) [A-0122] | ≥ 90 |

| Structure (SMILES) | mortality [%] |
| --- | --- |
| Cc1cc(F)c(OCCCSC(F)(F)F)cc1SCC(F)(F)F [A-0405] | ≥ 90 |
| Cc1cc(F)c(OCCC(C)C)cc1[S+]([O-])CC(F)(F)F (stereo not shown) [A-0038] | ≥ 90 |
| Cc1cc(F)c(OCCC(C)(C)C)cc1SCC(F)(F)F [A-0070] | ≥ 90 |
| [O-][S+](CC(F)(F)F)c1cc(OCCCCCOCC(F)(F)F)c(F)cc1Cl (stereo not shown) [A-0206] | ≥ 90 |
| Cc1cc(F)c(OCCOCC(F)(F)F)cc1SCC(F)(F)F [A-0199] | ≥ 90 |
| Cc1cc(F)c(OCCC2CC2(F)F)cc1SCC(F)(F)F (racemic) [A-0307] | ≥ 90 |
| CC(C)Oc1cc(SCC(F)(F)F)c(C#N)cc1F [A-0004] | ≥ 90 |
| Cc1cc(F)c(OCCCOC(C(F)(F)F)(C(F)(F)F)C(F)(F)F)cc1SCC(F)(F)F [A-0211] | ≥ 90 |
| Cc1cc(F)c(OCCCON=CC(F)(F)F)cc1SCC(F)(F)F [A-0975] | ≥ 90 |
| N#Cc1cc(F)c(OCCCCCSC(F)(F)F)cc1[S+]([O-])CC(F)(F)F (stereo not shown) [A-0437] | ≥ 90 |
| Cc1cc(F)c(OCCCCl)cc1SCC(F)(F)F [A-0260] | ≥ 90 |
| Cc1cc(F)c(OCCCc2ccccc2)cc1SCC(F)(F)F [A-0834] | ≥ 90 |
| Fc1cc(Cl)c(SCC(F)(F)F)cc1OCCCCCC(F)(F)F [A-0169] | ≥ 90 |
| Cc1cc(F)c(OC2CCCC2)cc1[S+]([O-])CC(F)(F)F (racemic) [A-1094] | ≥ 90 |
| N#Cc1cc(F)c(OCCCCCOCC(F)(F)F)cc1[S+]([O-])CC(F)(F)F (stereo not shown) [A-0208] | ≥ 90 |
| Fc1cc(Cl)c(SCC(F)(F)F)cc1OCCCCBr [A-0266] | ≥ 90 |
| Cc1cc(F)c(OCCCCCOCC(F)(F)F)cc1SCC(F)(F)F [A-0203] | ≥ 90 |
| Cc1cc(F)c(OCCCSc2ccc(C(C)(C)C)cc2)cc1[S+]([O-])CC(F)(F)F (stereo not shown) [A-0877] | ≥ 90 |
| CC(C)COc1cc(SCC(F)(F)F)c(C#N)cc1F [A-0035] | ≥ 90 |
| Fc1cc(Cl)c(SCC(F)(F)F)cc1OCCCCSC(F)(F)F [A-0417] | ≥ 90 |
| Cc1cc(F)c(OCCCCC(F)=C(F)F)cc1SCC(F)(F)F [A-0256] | ≥ 90 |
| C[Si](C)(C)CCCCOc1cc(SCC(F)(F)F)c(Cl)cc1F [A-1212] | ≥ 90 |

| Structure (SMILES) | mortality [%] |
| --- | --- |
| Cc1cc(F)c(OCCc2c(F)cc(F)cc2F)cc1SCC(F)(F)F [A-0811] | ≥ 90 |
| CC(C)CCOc1cc(SCC(F)(F)F)c(C#N)cc1F [A-0039] | ≥ 90 |
| Fc1cc(Cl)c(SCC(F)(F)F)cc1OCCCCCCSC(F)F [A-0572] | ≥ 90 |
| Cc1cc(F)c(OCCCON=CC(F)(F)F)cc1[S+]([O-])CC(F)(F)F (racemic) [A-0976] | ≥ 90 |
| Cc1cc(F)c(OCc2cccc(OC(F)(F)F)c2)cc1SCC(F)(F)F [A-0777] | ≥ 90 |
| Cc1cc(F)c(OCCC2CC2(F)F)cc1[S+]([O-])CC(F)(F)F (mixture of isomers) [A-0308] | ≥ 90 |
| Cc1cc(F)c(OCCCCON=CC(F)(F)F)cc1SCC(F)(F)F [A-0981] | ≥ 90 |
| COc1cc(SCC(F)(F)F)c(C)cc1F [A-0001] | ≥ 90 |
| Fc1cc(Cl)c(SCC(F)(F)F)cc1OCCc1ccc(F)c(C(F)(F)F)c1 [A-0815] | ≥ 90 |
| Cc1cc(F)c(OCCCCSC(F)(F)F)cc1SCC(F)(F)F [A-0415] | ≥ 90 |
| Cc1cc(F)c(OCCCC(=O)OC(C)(C)C)cc1SCC(F)(F)F [A-1051] | ≥ 90 |
| Cc1ccc(OCCCCC(C)(C)C)cc1SCC(F)(F)F [A-0091] | ≥ 90 |
| Cc1cc(F)c(OCCCON=Cc2ccc(C(F)(F)F)cc2)cc1SCC(F)(F)F [A-1003] | ≥ 90 |
| Cc1cc(F)c(OCCCON=CC(C)(C)C)cc1SCC(F)(F)F [A-0970] | ≥ 90 |
| Fc1cc(Cl)c(SCC(F)(F)F)cc1OCC(F)(F)OC(F)(F)C(F)(F)OC(F)(F)F [A-0229] | ≥ 90 |
| Cc1cc(F)c(OCCCON=Cc2cccc(C(F)(F)F)c2)cc1[S+]([O-])CC(F)(F)F (racemic) [A-1006] | ≥ 90 |
| COC(=O)N(CCCOc1cc([S+]([O-])CC(F)(F)F)c(Cl)cc1F)S(=O)(=O)C(F)(F)F (stereo not shown) [A-1187] | ≥ 90 |
| Cc1cc(F)c(OC(C)C)cc1[S+]([O-])CC(F)(F)F (stereo not shown) [A-0007] | ≥ 90 |
| C[Si](C)(C)CCCCOc1cc([S+]([O-])CC(F)(F)F)c(Cl)cc1F (stereo not shown) [A-1213] | ≥ 90 |
| CC(=NOCCCOc1cc(SCC(F)(F)F)c(Cl)cc1F)C(F)(F)F [A-0977] | ≥ 90 |
| Fc1cc(Cl)c(SCC(F)(F)F)cc1OCCCCCOC(C(F)(F)F)(C(F)(F)F)C(F)(F)F [A-0221] | ≥ 90 |
| Cc1cc(F)c(OCCCCC2CC2(F)F)cc1SCC(F)(F)F (racemic) [A-0311] | ≥ 90 |

| Structure (SMILES) | mortality [%] |
| --- | --- |
| Cc1cc(F)c(OCC(F)(F)OC(F)(F)C(F)(F)OC(F)(F)F)cc1[S+]([O-])CC(F)(F)F (racemic) [A-0228] | ≥ 90 |
| Fc1cc(Cl)c(SCC(F)(F)F)cc1OCCCBr [A-0263] | ≥ 90 |
| Cc1cc(F)c(OCCCC(F)(F)F)cc1SCC(F)(F)F [A-0159] | ≥ 90 |
| CC(=NOCCCOc1cc(SCC(F)(F)F)c(C)cc1F)C(F)(F)F [A-0972] | ≥ 90 |
| CCCCCCCOc1cc([S+]([O-])CC(F)(F)F)c(C#N)cc1F (stereo not shown) [A-0025] | ≥ 90 |
| CC(C)CCCOc1cc(SCC(F)(F)F)c(C#N)cc1F [A-0046] | ≥ 90 |
| Cc1cc(F)c(OCC(C)C)cc1SCC(F)(F)F [A-0032] | ≥ 90 |
| Fc1cc(Cl)c(SCC(F)(F)F)cc1OCCCOC(C(F)(F)F)(C(F)(F)F)C(F)(F)F [A-0213] | ≥ 90 |
| Cc1cc(F)c(OCCCCOC(C(F)(F)F)(C(F)(F)F)C(F)(F)F)cc1SCC(F)(F)F [A-0215] | ≥ 90 |
| Cc1cc(F)c(OCCCCC(F)(F)F)cc1SCC(F)(F)F [A-0163] | ≥ 90 |
| Cc1cc(F)c(OCCCCCCCl)cc1SCC(F)(F)F [A-0285] | ≥ 90 |
| Cc1cc(F)c(OCCCCC(C)C)cc1SCC(F)(F)F [A-0051] | ≥ 90 |
| N#Cc1cc(F)c(OCC(F)(F)C(F)(F)C(F)(F)C(F)(F)F)cc1SCC(F)(F)F [A-0188] | ≥ 90 |
| Cc1cc(F)c(OCCCC(C)C)cc1SCC(F)(F)F [A-0043] | ≥ 90 |
| Cc1cc(F)c(OCC=C=C(F)F)cc1[S+]([O-])CC(F)(F)F (racemic) [A-0259] | ≥ 90 |
| Cc1cc(F)c(OCC=C(Cl)C(F)(F)F)cc1SCC(F)(F)F [A-0253] | ≥ 90 |
| Cc1cc(F)c(OCC=C(Cl)C(F)(F)F)cc1[S+]([O-])CC(F)(F)F (racemic) [A-0254] | ≥ 90 |
| [O-][S+](CC(F)(F)F)c1cc(OCCCOC(C(F)(F)F)(C(F)(F)F)C(F)(F)F)c(F)cc1Cl (stereo not shown) [A-0214] | ≥ 90 |
| Cc1cc(F)c(OCCC(C)C)cc1SCC(F)(F)F [A-0037] | ≥ 90 |
